This is one part of the list.

Here are results for 54 sequences from publication PMC7819943, “Rice protein-binding microarrays: a tool to detect cis-acting elements near promoter regions in rice”.

This assay concerns the target T1, OsSMF1 (Oryza sativa, UniProt Q6ZLB0 1-436).
T1 sequence: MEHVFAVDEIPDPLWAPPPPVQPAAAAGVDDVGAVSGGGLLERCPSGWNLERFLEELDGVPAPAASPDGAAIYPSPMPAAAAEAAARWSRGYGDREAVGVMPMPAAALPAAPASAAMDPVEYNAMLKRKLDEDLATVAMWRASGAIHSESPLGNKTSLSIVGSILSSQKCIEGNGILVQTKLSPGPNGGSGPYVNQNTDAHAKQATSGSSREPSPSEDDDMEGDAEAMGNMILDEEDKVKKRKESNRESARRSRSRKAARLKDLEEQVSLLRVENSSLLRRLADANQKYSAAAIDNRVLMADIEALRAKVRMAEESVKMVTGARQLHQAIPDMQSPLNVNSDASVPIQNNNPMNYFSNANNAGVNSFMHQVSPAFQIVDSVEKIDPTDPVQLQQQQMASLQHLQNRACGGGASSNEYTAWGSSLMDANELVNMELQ
The assay is described as follows: protein-binding microarray (RPBM); PBS, 2% BSA, 51.3 ng/ul salmon testes DNA, 50 uM zinc acetate, 200 nM TF, 25 C, 1 h; high values mean tight binding. Conditions: protein: recombinant; tags: N-terminal polyhistidine and DsRed monomer fusion (pET32a); chain copies: 2; label: CyDye5-dUTP incorporated in the synthesized complementary strand; 3' TTTTT single-stranded linker to array surface; dsDNA, one strand shown. The method in brief:
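Ni–NTA purification followed expression in E. coli BL21-CodonPlus of transcription factors fused N-terminally to a polyhistidine tag and DsRed. At 200 nM in PBS with 2% BSA, salmon testes DNA and 50 µM zinc acetate, the protein was incubated for 1 h at 25 °C with a custom Agilent array that had been primer-extended with Cy5-dUTP and blocked with 2% BSA. After washing, the array was read on an Axon 4000B scanner. The binding signal is per-feature fluorescence intensity in arbitrary units.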
“AAAATAACCTCGAGCGAACACGATGACACGACGAGCGGCACGGAGTCACCTAGTGCAG”: the binding signal is 3710 fluorescence intensity (a.u.).

For the sequence “CCCCTGACGCGGCGACGCATATCCACATCGCCTTCCGGCCCGGAGTCACCTAGTGCAG”, the binding signal is 5850 fluorescence intensity (a.u.).

As to “AGTATATTAGGGTGTGTTTGGTTCCACGTCAAAATTAGAACGGAGTCACCTAGTGCAG”, the binding signal was 4840 fluorescence intensity (a.u.).

Turning to “CTAATTAAACGACGCGATTCAAATAAAATTGGGAGTACATCGGAGTCACCTAGTGCAG”, the binding signal is 30500 fluorescence intensity (a.u.).

Take “AGCAAGCTCATCGACGTCGCCTCTGTCGACGTGTGCCTCCCGGAGTCACCTAGTGCAG”: the binding signal is 5860 fluorescence intensity (a.u.).

“GTAACTCAATATCTGTGGGTGACGTTAATACATACATATCCGGAGTCACCTAGTGCAG”: the binding signal was 3450 fluorescence intensity (a.u.).

Consider “ATGGTTGACTGGCTGGTTCCCTGTGTCTGTCTCACCTTTGCGGAGTCACCTAGTGCAG”, for which the binding signal was 3160 fluorescence intensity (a.u.).

“CTTATCAGCCCCTATCTATTTACATGTCAGCCCTTGCATTCGGAGTCACCTAGTGCAG”: the binding signal is 4080 fluorescence intensity (a.u.).

Turning to “CATGGATTAAGCCCACCTGCGGCCGCCGAACAGTGGCGTCCGGAGTCACCTAGTGCAG”, the binding signal was 3530 fluorescence intensity (a.u.).

As to “GATGAATTGAAGTTAGTAGTCGGCTGTATTATTGAACTTGCGGAGTCACCTAGTGCAG”, the binding signal is 3320 fluorescence intensity (a.u.).

As to “GGCGAAAATGCGAAACGCATGTACGCATGTGTCACACGTGCGGAGTCACCTAGTGCAG”, the binding signal was 5080 fluorescence intensity (a.u.).

Regarding “TAAACATCTGATTAGCTAAAAGTGTTTAATTAGATTTCCACGGAGTCACCTAGTGCAG”, the binding signal was 3480 fluorescence intensity (a.u.).

As to “GTGCAAATGTACACAAAACCTCTTTCATCAAGCTACGTGGCGGAGTCACCTAGTGCAG”, the binding signal is 4390 fluorescence intensity (a.u.).

Consider “CTGCCTCCTGTTCGCGCTCCACGCCACCACTGCCGACGAGCGGAGTCACCTAGTGCAG”, for which the binding signal was 4300 fluorescence intensity (a.u.).

With “TCGCGAATCTGGATTCTGGAGAGACCGTGAGTCACCGACGCGGAGTCACCTAGTGCAG”, the binding signal is 8020 fluorescence intensity (a.u.).

Take “TAATCCCACCACGCACCGGAGCGAGAAGAAGAAGAACCCACGGAGTCACCTAGTGCAG”: the binding signal is 15100 fluorescence intensity (a.u.).

With “ATTCCCCGAGGCCCGCGTGTCAGCGACACGGGAGCCGGAACGGAGTCACCTAGTGCAG”, the binding signal is 3860 fluorescence intensity (a.u.).

For “TAGCCGATCCTCCACGTGTGCTCCTCTCCCCACTTGTCACCGGAGTCACCTAGTGCAG”, the binding signal is 15800 fluorescence intensity (a.u.).

With “CTTCGAAGATACTCATAGGGGTAGGGTTTACGTGCGTGCGCGGAGTCACCTAGTGCAG”, the binding signal is 3140 fluorescence intensity (a.u.).

With “CTTCTCCTGCATGGCAAGTCGCTGATCACAACTACGCATCCGGAGTCACCTAGTGCAG”, the binding signal was 3610 fluorescence intensity (a.u.).

Take “AGAAGGAGAGGAGAGAGGAGGTGGTGTACTGGTGCGTGTGCGGAGTCACCTAGTGCAG”: the binding signal was 3540 fluorescence intensity (a.u.).

For “ACACATCAATGTCGTTACCAGGTCACCATGTGCATCTACACGGAGTCACCTAGTGCAG”, the binding signal is 5520 fluorescence intensity (a.u.).

Turning to “ATTGATCTACGTGGTCCTGCTGATCTGTACTTTGGGTCTACGGAGTCACCTAGTGCAG”, the binding signal was 9280 fluorescence intensity (a.u.).

With “ATTTGGTATGACTTGGCTTCAAACCAAGATGGTCCGGAGTCGGAGTCACCTAGTGCAG”, the binding signal was 5390 fluorescence intensity (a.u.).

As for “AGAAATAAAGCCACATATGTCCAACATTCTACCCATGGCGCGGAGTCACCTAGTGCAG”, the binding signal is 3480 fluorescence intensity (a.u.).

Turning to “AGCTCGTCAGGTCTCTCCACCTCAGGGAGCTCAAGGCCCTCGGAGTCACCTAGTGCAG”, the binding signal was 3890 fluorescence intensity (a.u.).

With “ACGCTAGCACGTCATTACTGTTTCTCACCGATCACAAGGGCGGAGTCACCTAGTGCAG”, the binding signal was 6420 fluorescence intensity (a.u.).

For the sequence “CGGCGTGGCACTGTGACGTGGCAACGGTTATGCGGTTATGCGGAGTCACCTAGTGCAG”, the binding signal is 10600 fluorescence intensity (a.u.).

Regarding “AGAGGTACTATAACCTAATCATTTCACTTGTGCCTGTTTTCGGAGTCACCTAGTGCAG”, the binding signal was 7920 fluorescence intensity (a.u.).

As to “CGGTCTTGCGCGAAAACCCCGTCGTCACCTACAACGAACTCGGAGTCACCTAGTGCAG”, the binding signal was 3980 fluorescence intensity (a.u.).

As to “TCACCGTGCCACGTGGCCGACGGCATTGCGCGCGCGGCAGCGGAGTCACCTAGTGCAG”, the binding signal is 9860 fluorescence intensity (a.u.).

For the sequence “TAAAATTTCTGTCCATCGTGACGCACGCAGGTGATCTTCGCGGAGTCACCTAGTGCAG”, the binding signal was 4910 fluorescence intensity (a.u.).

“AAGGGGAAGGGTTGGTTCGGGCTGTGGGACAACAGCTCGGCGGAGTCACCTAGTGCAG”: the binding signal is 4370 fluorescence intensity (a.u.).

For the sequence “AAAATACAGGTTAGACCCATGCCGACCAGAAGTCATCCAGCGGAGTCACCTAGTGCAG”, the binding signal is 17600 fluorescence intensity (a.u.).

As to “ACCTTTTCACACGGTGTTCGTCCACCGTGTGCAACCTTGTCGGAGTCACCTAGTGCAG”, the binding signal is 4120 fluorescence intensity (a.u.).

Consider “TACTGTATGTTGGTAGCTTATTAGCGTGCATGACTGCATGCGGAGTCACCTAGTGCAG”, for which the binding signal is 26700 fluorescence intensity (a.u.).

With “GCCGTCGTGCCCTCGCATGCAACGTGTTCGTCCGACGACACGGAGTCACCTAGTGCAG”, the binding signal was 5560 fluorescence intensity (a.u.).

For the sequence “CAGTTTGTTGGGATGCTGACAGCACCCTCTTAGACTAGCACGGAGTCACCTAGTGCAG”, the binding signal is 5070 ± 316 fluorescence intensity (a.u.).

On to “GGATATGACAATTGACCATTCATGCCCCTTCATCTTATTACGGAGTCACCTAGTGCAG”, for which the binding signal is 3540 fluorescence intensity (a.u.).

On to “CTTATGGAGCTTTACGTTGTTCTAGTTACTTGAAGCTCCACGGAGTCACCTAGTGCAG”, for which the binding signal is 5920 fluorescence intensity (a.u.).

For “ACCTCTTAATGAGAATGTGACTCATCCTAATACAACCAACCGGAGTCACCTAGTGCAG”, the binding signal was 9830 fluorescence intensity (a.u.).

As for “GCAACGTATAAGAGCGAGTACAATAGCATGCTACAAGTTACGGAGTCACCTAGTGCAG”, the binding signal is 31900 fluorescence intensity (a.u.).

Regarding “AAAATATGCTGACATGGATATCTTATAGAGAGCCTATAGACGGAGTCACCTAGTGCAG”, the binding signal is 5890 fluorescence intensity (a.u.).

Turning to “TTCCTGTTCTATTCTTTCAGCAATGGTTTAGGTCAACACACGGAGTCACCTAGTGCAG”, the binding signal is 19100 fluorescence intensity (a.u.).

As to “ACATGGGCTTTGAGAAATGTAAATATTAATGAATCGCTTGCGGAGTCACCTAGTGCAG”, the binding signal is 3410 fluorescence intensity (a.u.).

With “GGGCCCGGAGGACGACGAGGACGACAGCGAGGACGTCCCCCGGAGTCACCTAGTGCAG”, the binding signal is 3300 fluorescence intensity (a.u.).

Turning to “CTATTGTTCAAGATTTCGTCATGCTTATGACCGCAAAACCCGGAGTCACCTAGTGCAG”, the binding signal is 4240 fluorescence intensity (a.u.).

Regarding “GCAGATACGAATGTTGCCACTATAAATACACGTGTACGTTCGGAGTCACCTAGTGCAG”, the binding signal was 8290 fluorescence intensity (a.u.).

On to “ATGCGCATCTTCCTCCCTCATGACATTGCAGTTCCAAGTACGGAGTCACCTAGTGCAG”, for which the binding signal is 3660 fluorescence intensity (a.u.).

For the sequence “TTAGGCCAATGCATTACTGCTAGCAGCTGCCTATCAGTTGCGGAGTCACCTAGTGCAG”, the binding signal is 3180 fluorescence intensity (a.u.).

For “CATGGTCTATGGCATTCGTAACGGATTGAACGCCACCGGCCGGAGTCACCTAGTGCAG”, the binding signal was 21800 fluorescence intensity (a.u.).

“TTTGCCTCCCTGTTCCTCTGTTGGTCACAGCAGATGCTGACGGAGTCACCTAGTGCAG”: the binding signal is 4370 fluorescence intensity (a.u.).

For the sequence “GATGCGATGCGATGTGATGGCGATGGCGTCATCCGAGCGCCGGAGTCACCTAGTGCAG”, the binding signal is 4550 fluorescence intensity (a.u.).

Consider “ACGGCCTTCATCCTGGGCCACTCCCACGTGCAGTGCAAGCCGGAGTCACCTAGTGCAG”, for which the binding signal is 3430 fluorescence intensity (a.u.).
